Source: PubChem BioAssay AID686938 (Drosophila RNAi Screening Center, 2013)
The deposit covers about 23,000 reagents; this is a random part of those that have a named target and a result. Over the whole deposit, 75 (0.33%) were called active. 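Raw plate signals without normalisation; calls rest on plate z-scores that were not deposited; ratio present for only 364 wells.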 Names joined by + are all predicted targets of the reagent. The record does not give: the dose of the treatment.

- Purpose: 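Looking for CRAC channel components and the factors controlling them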 (primary screen)
- Cells: Drosophila S2R+ cells
- Reagents: long dsRNA against Drosophila genes, about 0.25 µg dsRNA per well, roughly 10,000 cells
- Duration: 5 days of knock-down before the calcium assay
- Conditions: thapsigargin (SERCA pump blocker) to empty calcium stores; entry signal taken 4 min after adding it
- Measurement: 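Duplicate raw fluo-4 intensities per well from a plate reader, at rest and four minutes after thapsigargin emptied calcium stores; entry-to-rest ratio filled for only some wells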
- Scale: calcium entry signal: higher = stronger calcium signal after store depletion; resting calcium signal: higher = higher resting calcium signal
- Units: calcium entry signal in fluorescence units; resting calcium signal in fluorescence units
- Active means: 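Hit if the duplicate-averaged plate z-score for entry over resting signal is under −3; wells with weak total dye signal (Fmax z < −2) or more than 5 off-targets removed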
- Calls: active = strongly reduced calcium entry; inactive = no strong reduction

CG5849 [DRSC15893] showed calcium entry signal, replicate 1 = 4.01e7; calcium entry signal, replicate 2 = 4.38e7; resting calcium signal, replicate 1 = 5.24e7; resting calcium signal, replicate 2 = 1.93e7; inactive.
CG6937 + btn [DRSC16917] showed calcium entry signal, replicate 1 = 3.22e7; calcium entry signal, replicate 2 = 4.73e7; resting calcium signal, replicate 1 = 1.53e7; resting calcium signal, replicate 2 = 1.84e7; inactive.
Depletion of Nepl11 [DRSC12333] gave: calcium entry signal, replicate 1 = 4.02e7; calcium entry signal, replicate 2 = 4.21e7; resting calcium signal, replicate 1 = 1.91e7; resting calcium signal, replicate 2 = 2.15e7; inactive.
After knock-down of path [DRSC10361] the results were calcium entry signal, replicate 1 = 2.58e7; calcium entry signal, replicate 2 = 3.40e7; resting calcium signal, replicate 1 = 1.30e7; resting calcium signal, replicate 2 = 1.44e7; inactive.
Against CG34268 [DRSC07874], the values are calcium entry signal, replicate 1 = 4.02e7; calcium entry signal, replicate 2 = 4.63e7; resting calcium signal, replicate 1 = 2.13e7; resting calcium signal, replicate 2 = 2.23e7; inactive.
For CG13405 [DRSC08310] the deposit lists calcium entry signal, replicate 1 = 3.27e7; calcium entry signal, replicate 2 = 4.26e7; resting calcium signal, replicate 1 = 1.65e7; resting calcium signal, replicate 2 = 1.80e7; inactive.
Depletion of CG11350 [DRSC08181] came out at: calcium entry signal, replicate 1 = 2.17e7; calcium entry signal, replicate 2 = 1.84e7; resting calcium signal, replicate 1 = 1.28e7; resting calcium signal, replicate 2 = 1.01e7; inactive.
GluRIIA [DRSC03334] showed calcium entry signal, replicate 1 = 2.52e7; calcium entry signal, replicate 2 = 2.57e7; resting calcium signal, replicate 1 = 1.25e7; resting calcium signal, replicate 2 = 1.27e7; inactive.

Reprinted from the entries so far for reference:
path [DRSC10361]: calcium entry signal, replicate 1 = 2.58e7; calcium entry signal, replicate 2 = 3.40e7; resting calcium signal, replicate 1 = 1.30e7; resting calcium signal, replicate 2 = 1.44e7; Call = inactive
CG34268 [DRSC07874]: calcium entry signal, replicate 1 = 4.02e7; calcium entry signal, replicate 2 = 4.63e7; resting calcium signal, replicate 1 = 2.13e7; resting calcium signal, replicate 2 = 2.23e7; Call = inactive
CG13405 [DRSC08310]: calcium entry signal, replicate 1 = 3.27e7; calcium entry signal, replicate 2 = 4.26e7; resting calcium signal, replicate 1 = 1.65e7; resting calcium signal, replicate 2 = 1.80e7; Call = inactive

Next entries follow:
CG17270 [DRSC15209] showed calcium entry signal, replicate 1 = 4.34e7; calcium entry signal, replicate 2 = 3.50e7; resting calcium signal, replicate 1 = 1.97e7; resting calcium signal, replicate 2 = 1.54e7; inactive.
With knock-down of twin [DRSC15259], the screen gave calcium entry signal, replicate 1 = 3.50e7; calcium entry signal, replicate 2 = 3.07e7; resting calcium signal, replicate 1 = 1.81e7; resting calcium signal, replicate 2 = 1.65e7; inactive.
Knock-down of twin [DRSC15831] gave: calcium entry signal, replicate 1 = 4.71e7; calcium entry signal, replicate 2 = 4.26e7; resting calcium signal, replicate 1 = 2.41e7; resting calcium signal, replicate 2 = 1.73e7; inactive.
twin [DRSC21363] scored calcium entry signal, replicate 1 = 2.30e7; calcium entry signal, replicate 2 = 2.59e7; resting calcium signal, replicate 1 = 1.23e7; resting calcium signal, replicate 2 = 1.24e7; inactive.
After knock-down of Hrb98DE [DRSC16709] the results were calcium entry signal, replicate 1 = 6.47e7; calcium entry signal, replicate 2 = 6.46e7; resting calcium signal, replicate 1 = 2.66e7; resting calcium signal, replicate 2 = 3.01e7; inactive.
CG4520 [DRSC15590] scored calcium entry signal, replicate 1 = 2.47e7; calcium entry signal, replicate 2 = 3.76e7; resting calcium signal, replicate 1 = 1.29e7; resting calcium signal, replicate 2 = 5.53e7; inactive.
Silencing of nocte [DRSC18123] resulted in: calcium entry signal, replicate 1 = 4.79e7; calcium entry signal, replicate 2 = 4.14e7; resting calcium signal, replicate 1 = 2.35e7; resting calcium signal, replicate 2 = 2.10e7; inactive.
CG6277 [DRSC16008] showed calcium entry signal, replicate 1 = 3.44e7; calcium entry signal, replicate 2 = 4.98e7; resting calcium signal, replicate 1 = 1.72e7; resting calcium signal, replicate 2 = 2.17e7; inactive.
For ACC [DRSC06059], the values are calcium entry signal, replicate 1 = 2.14e7; calcium entry signal, replicate 2 = 2.81e7; resting calcium signal, replicate 1 = 1.13e7; resting calcium signal, replicate 2 = 1.19e7; inactive.
ACC [DRSC07249] gave calcium entry signal, replicate 1 = 1.80e7; calcium entry signal, replicate 2 = 2.63e7; resting calcium signal, replicate 1 = 1.30e7; resting calcium signal, replicate 2 = 1.50e7; inactive.
Silencing of Cyp301a1 [DRSC07365] came out at: calcium entry signal, replicate 1 = 3.09e7; calcium entry signal, replicate 2 = 4.50e7; resting calcium signal, replicate 1 = 1.54e7; resting calcium signal, replicate 2 = 1.93e7; inactive.
Knock-down of CG15772 [DRSC18078] came out at: calcium entry signal, replicate 1 = 2.97e7; calcium entry signal, replicate 2 = 4.34e7; resting calcium signal, replicate 1 = 1.47e7; resting calcium signal, replicate 2 = 1.89e7; inactive.
Depletion of dpr14 [DRSC17767] came out at: calcium entry signal, replicate 1 = 4.76e7; calcium entry signal, replicate 2 = 4.09e7; resting calcium signal, replicate 1 = 2.08e7; resting calcium signal, replicate 2 = 1.86e7; inactive.
